Measured data: PubChem BioAssay AID652259 (Drosophila RNAi Screening Center, 2013)
The deposit covers about 22,000 reagents; this is an unselected part of those with a known target gene and a result. In the full data, 233 (1.1%) are marked active. 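Light values are raw, unnormalised plate reads; the ratio scores behind the reporter calls were not deposited.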 No sequences are given here. The record does not give: the amount of reagent, the time to read-out, the dose of the treatment.

Screen: 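Knock-downs that push a Wingless-driven reporter up or down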 (primary screen)
Cells: Drosophila clone 8 imaginal disc epithelial cells
Reagents: long dsRNA against Drosophila genes
Conditions: pathway stimulated by co-transfected Wingless expression plasmid
Detection: 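Firefly luciferase from a tcf-site Wingless reporter, measured alongside co-transfected Renilla luciferase that tracks transfection; pathway stimulated by a Wingless plasmid; the firefly-to-Renilla ratio is not deposited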
Scale: firefly reporter light: higher = more Wg reporter light, before normalisation; Renilla control light: higher = more transfected or surviving cells
Active means: 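Strong candidates differ from their plate mean by at least two out of four per-plate statistical tests; weak candidates meet just one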
Calls: active = candidate regulator (raises or lowers reporter); inactive = not a candidate

gene knocked down	amplicon	reporter change call, replicate 1	firefly reporter light, replicate 1	firefly reporter light, replicate 2	Renilla control light, replicate 1	Renilla control light, replicate 2	call
CG43092 (GeneID 12798515)	DRSC13572		1882		819		inactive
CG42709 (GeneID 39453)	DRSC10277		5529		2464		inactive
Ca-beta (GeneID 34557)	DRSC02406		2172	4722	1036	2812	inactive
Ca-beta (GeneID 34557)	DRSC02407		3008	6096	1030	2470	inactive
Ca-beta (GeneID 34557)	DRSC03285		5477	6897	1399	3344	inactive
Ca-beta (GeneID 34557)	DRSC21432		3.66e5	4.19e5	1.72e5	1.71e5	inactive
CG14659 (GeneID 40604)	DRSC12245		16377		6540		inactive
CG4577 (GeneID 33291)	DRSC00658		4180	8874	1172	3402	inactive
CG32052 (GeneID 326184)	DRSC10966		7223		2806		inactive
Smyd3 (GeneID 44554)	DRSC17744		26001		12221		inactive
CG3505 (GeneID 41777)	DRSC15489		5216		2369		inactive
nompA (GeneID 45587)	DRSC06329		6384		2962		inactive
CG12868 (GeneID 36620)	DRSC06207		7312		2752		inactive

Continued; the last 4 above are carried over.
gene knocked down	amplicon	reporter change call, replicate 1	firefly reporter light, replicate 1	firefly reporter light, replicate 2	Renilla control light, replicate 1	Renilla control light, replicate 2	call
Smyd3 (GeneID 44554)	DRSC17744		26001		12221		inactive
CG3505 (GeneID 41777)	DRSC15489		5216		2369		inactive
nompA (GeneID 45587)	DRSC06329		6384		2962		inactive
CG12868 (GeneID 36620)	DRSC06207		7312		2752		inactive
CG31220 (GeneID 326126)	DRSC22248		5.52e5	4.25e5	1.84e5	2.24e5	inactive
CG43123 (GeneID 12798080)	DRSC05049		23388		8196		inactive
CG31051 (GeneID 261634)	DRSC15034		3530	11223	1048	2776	inactive
r (GeneID 32640)	DRSC19813		20288		8616		inactive
r (GeneID 32640)	DRSC19814		18752		7604		inactive
CG5509 (GeneID 41539)	DRSC15822		16560		4246		inactive
ppk19 (GeneID 43489)	DRSC15321		5349		3002		inactive
CG33702 (GeneID 3771932)	DRSC08986		3669		1442		inactive
CG18528 (GeneID 42906)	DRSC15340		18768		18644		inactive
CG7131 (GeneID 42197)	DRSC16203		3697	7115	1216	2829	inactive
CR31292 (GeneID 10178952)	DRSC13120		4418		1501		inactive
IntS12 (GeneID 43227)	DRSC15818		6544		3153		inactive
Taf8 (GeneID 32792)	DRSC20363	Wg reporter activity raised	31445		7995		active
Dbp73D (GeneID 39871)	DRSC11142		4950		1267		inactive
CG3609 (GeneID 33421)	DRSC00620		2338	5637	925	2368	inactive
CG7386 (GeneID 38719)	DRSC10832		1740	7152	1212	3298	inactive
